Taken from: PubChem BioAssay AID686938 (Drosophila RNAi Screening Center, 2013)
The deposit covers about 23,000 reagents; this is a random part of those with a known target gene and a result. Of all reagents, 75 (0.33%) were called active. 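Raw plate signals without normalisation; calls rest on plate z-scores that were not deposited; ratio present for only 364 wells.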 Unmarked entries are inactive. No sequences are given here. Not stated in the record: the dose of the treatment.

- Assay: 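Knock-downs reducing store-operated calcium influx in Drosophila cells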 (primary screen)
- Cell system: Drosophila S2R+ cells
- Reagent: long dsRNA against Drosophila genes, about 0.25 µg dsRNA per well, roughly 10,000 cells
- Time to read-out: 5 days of knock-down before the calcium assay
- Challenge: thapsigargin (SERCA pump blocker) to empty calcium stores; entry signal taken 4 min after adding it
- Measured: 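Per-well fluo-4 fluorescence in two replicates, unnormalised, measured in resting cells and 4 min after store depletion by the SERCA blocker thapsigargin; ratio of the two present in few wells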
- Reading the numbers: calcium entry signal: higher = stronger calcium signal after store depletion; resting calcium signal: higher = higher resting calcium signal
- Units: calcium entry signal in fluorescence units; resting calcium signal in fluorescence units
- Rule for the call: 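Called when the plate z-score of the entry-to-rest ratio, mean of duplicates, falls below −3; wells with low overall dye signal (Fmax z below −2) or more than five off-targets excluded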
- Calls: active = strongly reduced calcium entry; inactive = no strong reduction

CG40486 [DRSC20619]
- calcium entry signal, replicate 1: 5.13e7
- calcium entry signal, replicate 2: 4.30e7
- resting calcium signal, replicate 1: 2.20e7
- resting calcium signal, replicate 2: 2.02e7

CG42264 [DRSC18074]
- calcium entry signal, replicate 1: 4.00e7
- calcium entry signal, replicate 2: 4.41e7
- resting calcium signal, replicate 1: 1.97e7
- resting calcium signal, replicate 2: 2.09e7

CG42264 [DRSC18075]
- calcium entry signal, replicate 1: 3.59e7
- calcium entry signal, replicate 2: 4.51e7
- resting calcium signal, replicate 1: 1.79e7
- resting calcium signal, replicate 2: 1.94e7

Dbx [DRSC08270]
- calcium entry signal, replicate 1: 2.71e7
- calcium entry signal, replicate 2: 3.49e7
- resting calcium signal, replicate 1: 1.48e7
- resting calcium signal, replicate 2: 1.70e7

Dbx [DRSC08271]
- calcium entry signal, replicate 1: 2.66e7
- calcium entry signal, replicate 2: 4.05e7
- resting calcium signal, replicate 1: 1.32e7
- resting calcium signal, replicate 2: 1.80e7

Dbx [DRSC08394]
- calcium entry signal, replicate 1: 2.66e7
- calcium entry signal, replicate 2: 3.41e7
- resting calcium signal, replicate 1: 1.25e7
- resting calcium signal, replicate 2: 1.64e7

Osi20 [DRSC12568]
- calcium entry signal, replicate 1: 3.34e7
- calcium entry signal, replicate 2: 3.09e7
- resting calcium signal, replicate 1: 1.55e7
- resting calcium signal, replicate 2: 1.55e7

Bfc [DRSC08623]
- calcium entry signal, replicate 1: 3.01e7
- calcium entry signal, replicate 2: 4.44e7
- resting calcium signal, replicate 1: 1.63e7
- resting calcium signal, replicate 2: 1.97e7

CG14540 [DRSC14884]
- calcium entry signal, replicate 1: 4.62e7
- calcium entry signal, replicate 2: 6.95e7
- resting calcium signal, replicate 1: 2.40e7
- resting calcium signal, replicate 2: 3.02e7

CG13454 [DRSC10001]
- calcium entry signal, replicate 1: 3.62e7
- calcium entry signal, replicate 2: 3.42e7
- resting calcium signal, replicate 1: 1.90e7
- resting calcium signal, replicate 2: 1.73e7

RpS27 [DRSC14244]
- calcium entry signal, replicate 1: 1.41e7
- calcium entry signal, replicate 2: 1.57e7
- resting calcium signal, replicate 1: 1.01e7
- resting calcium signal, replicate 2: 1.06e7

CG3492 [DRSC04373]
- calcium entry signal, replicate 1: 3.77e7
- resting calcium signal, replicate 1: 1.96e7

cyp33 [DRSC07600]
- calcium entry signal, replicate 1: 2.85e7
- calcium entry signal, replicate 2: 2.42e7
- resting calcium signal, replicate 1: 1.31e7
- resting calcium signal, replicate 2: 1.10e7

ReepB [DRSC07150]
- calcium entry signal, replicate 1: 4.47e7
- calcium entry signal, replicate 2: 4.14e7
- resting calcium signal, replicate 1: 1.73e7
- resting calcium signal, replicate 2: 1.88e7

Oatp58Da [DRSC04365]
- calcium entry signal, replicate 1: 3.70e7
- calcium entry signal, replicate 2: 4.41e7
- resting calcium signal, replicate 1: 1.85e7
- resting calcium signal, replicate 2: 2.02e7

ND-MWFE [DRSC06364]
- calcium entry signal, replicate 1: 3.03e7
- calcium entry signal, replicate 2: 1.97e7
- resting calcium signal, replicate 1: 1.59e7
- resting calcium signal, replicate 2: 9.66e6

CG32631 [DRSC19768]
- calcium entry signal, replicate 1: 4.04e7
- calcium entry signal, replicate 2: 4.44e7
- resting calcium signal, replicate 1: 1.77e7
- resting calcium signal, replicate 2: 1.94e7

CG12010 [DRSC08218]
- calcium entry signal, replicate 1: 2.84e7
- calcium entry signal, replicate 2: 3.59e7
- resting calcium signal, replicate 1: 1.53e7
- resting calcium signal, replicate 2: 1.60e7

rdo [DRSC02452]
- calcium entry signal, replicate 1: 4.03e7
- resting calcium signal, replicate 1: 2.00e7

CG15719 [DRSC19685]
- calcium entry signal, replicate 1: 3.32e7
- calcium entry signal, replicate 2: 5.35e7
- resting calcium signal, replicate 1: 1.63e7
- resting calcium signal, replicate 2: 2.59e7

CG31445 [DRSC14443]
- calcium entry signal, replicate 1: 2.45e7
- calcium entry signal, replicate 2: 3.15e7
- resting calcium signal, replicate 1: 1.13e7
- resting calcium signal, replicate 2: 1.33e7

2 entries from above, reformatted:
gene	amplicon	calcium entry signal, replicate 1	calcium entry signal, replicate 2	resting calcium signal, replicate 1	resting calcium signal, replicate 2
Osi20	DRSC12568	3.34e7	3.09e7	1.55e7	1.55e7
Bfc	DRSC08623	3.01e7	4.44e7	1.63e7	1.97e7
